In patent US20140357560A1, “PTH-CONTAINING THERAPEUTIC/PROPHYLACTIC AGENT FOR OSTEOPOROSIS, CHARACTERIZED IN THAT PTH IS ADMINISTERED ONCE A WEEK IN A UNIT DOSE OF 100 TO 200 UNITS” (ASAHI KASEI PHARMA CORPORATION, priority 2009, published 2014):
Part of at least one peptide drawing is inferred or uncertain, most often the ends.

Legend:
Type in all cases: in vivo, human
[1] = test system: high-risk patients diagnosed with primary osteoporosis; test: Working Example 2: CT geometry of the proximal femur (multislice CT); conditions: 200 units once a week
[2] = test system: high-risk patients diagnosed with primary osteoporosis; test: Working Example 2: new vertebral fractures (x-ray, method of Genant); conditions: for New vertebral fractures: Incidence (%) / New vertebral fractures: No. of subjects: n = 261
[3] = test system: high-risk patients diagnosed with primary osteoporosis; test: Working Example 2: vertebral fractures (new+worsening), Kaplan-Meier estimation; conditions: after 72 weeks, 200 units once a week
[4] = 200 units once a week, after 72 weeks, two or more new vertebral fractures, n=261
[5] = No. of fractures: Five or more, 200 units once a week
[6] = No. of fractures: Four, 200 units once a week
[7] = No. of fractures: One, 200 units once a week
[8] = No. of fractures: Three, 200 units once a week
[9] = No. of fractures: Two, 200 units once a week
[10] = Time after administration >24 W-≦48 W
[11] = Time after administration >48 W-≦72 W
[12] = Time after administration ≦24 W
[13] = history of taking Alfacalcidol, number of patients, 200 units once a week
[14] = history of taking Calcitriol, number of patients, 200 units once a week
[15] = history of taking Calcium L-aspartate, number of patients, 200 units once a week
[16] = history of taking Calcium lactate, number of patients, 200 units once a week
[17] = history of taking Elcatonin, number of patients, 200 units once a week
[18] = history of taking Menatetrenone, number of patients, 200 units once a week
[19] = history of taking Raloxifene hydrochloride, number of patients, 200 units once a week
[20] = patients taking glucocorticoid, 200 units once a week, number of patients

CC[C@H](C)[C@H](NC(=O)[C@H](CCC(=O)O)NC(=O)[C@H](CO)NC(=O)[C@@H](NC(=O)[C@@H](N)CO)C(C)C)C(=O)N[C@@H](CCC(N)=O)C(=O)N[C@@H](CC(C)C)C(=O)N[C@@H](CCSC)C(=O)N[C@@H](Cc1c[nH]cn1)C(=O)N[C@@H](CC(N)=O)C(=O)N[C@@H](CC(C)C)C(=O)NCC(=O)N[C@@H](CCCCN)C(=O)N[C@@H](Cc1c[nH]cn1)C(=O)N[C@@H](CC(C)C)C(=O)N[C@@H](CC(N)=O)C(=O)N[C@@H](CO)C(=O)N[C@@H](CCSC)C(=O)N[C@@H](CCC(=O)O)C(=O)N[C@@H](CCCNC(=N)N)C(=O)N[C@H](C(=O)N[C@@H](CCC(=O)O)C(=O)N[C@@H](Cc1c[nH]c2ccccc12)C(=O)N[C@@H](CC(C)C)C(=O)N[C@@H](CCCNC(=N)N)C(=O)N[C@@H](CCCCN)C(=O)N[C@@H](CCCCN)C(=O)N[C@@H](CC(C)C)C(=O)N[C@@H](CCC(N)=O)C(=O)N[C@@H](CC(=O)O)C(=O)N[C@H](C(=O)N[C@@H](Cc1c[nH]cn1)C(=O)N[C@@H](CC(N)=O)C(=O)N[C@@H](Cc1ccccc1)C(=O)O)C(C)C)C(C)C [teriparatide acetate]
Volume bone mineral density (cortical bone) [vBMD cortical], change from baseline (%) ([1]; Shaft of femur, after 48 weeks): 0.59%
Volume bone mineral density (total) [vBMD total], change from baseline (%) ([1]; Shaft of femur, after 48 weeks): 1.03%
Buckling ratio, change from baseline (%) ([1]; Shaft of femur, after 72 weeks): −3.54%
Maximum section modulus (SM(Z min)), change from baseline (%) ([1]; Shaft of femur, after 72 weeks): 2.69%
Volume bone mineral density (cortical bone) [vBMD cortical], change from baseline (%) ([1]; Shaft of femur, after 72 weeks): 0.18%
Volume bone mineral density (total) [vBMD total], change from baseline (%) ([1]; Shaft of femur, after 72 weeks): 1.25%
Buckling ratio, change from baseline (%) ([1]; Trochanter, after 48 weeks): 1.59%
Maximum section modulus (SM(Z min)), change from baseline (%) ([1]; Trochanter, after 48 weeks): 5.19%
Volume bone mineral density (cortical bone) [vBMD cortical], change from baseline (%) ([1]; Trochanter, after 48 weeks): −0.49%
Volume bone mineral density (total) [vBMD total], change from baseline (%) ([1]; Trochanter, after 48 weeks): 1.36%
Buckling ratio, change from baseline (%) ([1]; Trochanter, after 72 weeks): 1.27%
Maximum section modulus (SM(Z min)), change from baseline (%) ([1]; Trochanter, after 72 weeks): 3.20%
Volume bone mineral density (cortical bone) [vBMD cortical], change from baseline (%) ([1]; Trochanter, after 72 weeks): −1.49%
Volume bone mineral density (total) [vBMD total], change from baseline (%) ([1]; Trochanter, after 72 weeks): 0.95%
incidence of multiple vertebral fractures [2, 4]: 0.8%
multiple vertebral fractures (number of cases) [2, 4]: 2 cases
occurrence of new vertebral fractures after 48 weeks ([2]; 200 units once a week, division 48 to 72 weeks): no new vertebral fractures occurred after 48 weeks
No. with fractures (new vertebral fractures) ([2]; Complication (diabetes): No, 200 units once a week): 7
Incidence of new vertebrae fractures (%) ([2]; Complication (diabetes): No, After 24 W, 200 units once a week): 2.8%
Incidence of new vertebrae fractures (%) ([2]; Complication (diabetes): No, After 48 W, 200 units once a week): 3.3%
Incidence of new vertebrae fractures (%) ([2]; Complication (diabetes): No, After 72 W, 200 units once a week): 3.3%
No. with fractures (new vertebral fractures) ([2]; Complication (diabetes): Yes, 200 units once a week): 0
Incidence of new vertebrae fractures (%) ([2]; Complication (diabetes): Yes, After 24 W, 200 units once a week): 0.0%
Incidence of new vertebrae fractures (%) ([2]; Complication (diabetes): Yes, After 48 W, 200 units once a week): 0.0%
Incidence of new vertebrae fractures (%) ([2]; Complication (diabetes): Yes, After 72 W, 200 units once a week): 0.0%
No. with fractures (new vertebral fractures) ([2]; Complication (hyperlipidemia): No, 200 units once a week): 4
Incidence of new vertebrae fractures (%) ([2]; Complication (hyperlipidemia): No, After 24 W, 200 units once a week): 2.2%
Incidence of new vertebrae fractures (%) ([2]; Complication (hyperlipidemia): No, After 48 W, 200 units once a week): 3.0%
Incidence of new vertebrae fractures (%) ([2]; Complication (hyperlipidemia): No, After 72 W, 200 units once a week): 3.0%
No. with fractures (new vertebral fractures) ([2]; Complication (hyperlipidemia): Yes, 200 units once a week): 3
Incidence of new vertebrae fractures (%) ([2]; Complication (hyperlipidemia): Yes, After 24 W, 200 units once a week): 3.2%
Incidence of new vertebrae fractures (%) ([2]; Complication (hyperlipidemia): Yes, After 48 W, 200 units once a week): 3.2%
Incidence of new vertebrae fractures (%) ([2]; Complication (hyperlipidemia): Yes, After 72 W, 200 units once a week): 3.2%
No. with fractures (new vertebral fractures) ([2]; Complication (hypertension): No, 200 units once a week): 3
Incidence of new vertebrae fractures (%) ([2]; Complication (hypertension): No, After 24 W, 200 units once a week): 2.1%
Incidence of new vertebrae fractures (%) ([2]; Complication (hypertension): No, After 48 W, 200 units once a week): 3.1%
Incidence of new vertebrae fractures (%) ([2]; Complication (hypertension): No, After 72 W, 200 units once a week): 3.1%
No. with fractures (new vertebral fractures) ([2]; Complication (hypertension): Yes, 200 units once a week): 4
Incidence of new vertebrae fractures (%) ([2]; Complication (hypertension): Yes, After 24 W, 200 units once a week): 3.1%
Incidence of new vertebrae fractures (%) ([2]; Complication (hypertension): Yes, After 48 W, 200 units once a week): 3.1%
Incidence of new vertebrae fractures (%) ([2]; Complication (hypertension): Yes, After 72 W, 200 units once a week): 3.1%
No. with fractures (new vertebral fractures) ([2]; Creatinine clearance value at start Abnormal (<80), 200 units once a week): 6
No. with fractures (new vertebral fractures) ([2]; Creatinine clearance value at start Normal (≧80), 200 units once a week): 0
No. with fractures (new vertebral fractures) ([2]; FAS, 261 evaluated, over 72 W): 7
New vertebral fractures: Incidence (%) [2, 5]: 0.0%
New vertebral fractures: No. of subjects [2, 5]: 0
New vertebral fractures: Incidence (%) [2, 6]: 0.0%
New vertebral fractures: No. of subjects [2, 6]: 0
New vertebral fractures: No. of subjects ([2]; No. of fractures: None, 200 units once a week): 254
New vertebral fractures: Incidence (%) [2, 7]: 1.9%
New vertebral fractures: No. of subjects [2, 7]: 5
New vertebral fractures: Incidence (%) [2, 8]: 0.0%
New vertebral fractures: No. of subjects [2, 8]: 0
New vertebral fractures: Incidence (%) [2, 9]: 0.8%
New vertebral fractures: No. of subjects [2, 9]: 2
No. with fractures (new vertebral fractures) ([2]; Prior osteoporosis treatment (no), 200 units once a week): 4
No. with fractures (new vertebral fractures) ([2]; Prior osteoporosis treatment (yes), 200 units once a week): 3
New vertebral fractures: Incidence of fractures (%) [2, 10]: 0.9%
New vertebral fractures: No. of fractures [2, 10]: 2
New vertebral fractures: No. with fractures ([2]; Time after administration >24 W-≦48 W, 219 evaluated): 2
New vertebral fractures: Incidence of fractures (%) [2, 11]: 0%
New vertebral fractures: No. of fractures [2, 11]: 0
New vertebral fractures: No. with fractures ([2]; Time after administration >48 W-≦72 W, 206 evaluated): 0
New vertebral fractures: Incidence of fractures (%) [2, 12]: 2.3%
New vertebral fractures: No. of fractures [2, 12]: 7
New vertebral fractures: No. with fractures ([2]; Time after administration ≦24 W, 261 evaluated): 6
New vertebral fractures: No [2, 13]: 62
New vertebral fractures: Yes [2, 13]: 1
New vertebral fractures: No [2, 14]: 7
New vertebral fractures: Yes [2, 14]: 1
New vertebral fractures: No [2, 15]: 28
New vertebral fractures: Yes [2, 15]: 1
New vertebral fractures: No [2, 16]: 8
New vertebral fractures: Yes [2, 16]: 0
New vertebral fractures: No [2, 17]: 35
New vertebral fractures: Yes [2, 17]: 2
New vertebral fractures: No [2, 18]: 6
New vertebral fractures: Yes [2, 18]: 0
New vertebral fractures: No [2, 19]: 20
New vertebral fractures: Yes [2, 19]: 0
Existence of new vertebral fractures, Fracture: no [2, 20]: 29
Existence of new vertebral fractures, Fracture: yes [2, 20]: 0
drop in risk of new vertebral fractures versus the placebo (relative risk reduction) ([2]; weekly administration of 200 units, after 24 weeks): 53.9%
incidence of vertebral fractures (new+worsening) by Kaplan-Meier estimation ([3]; FAS): 3.5%
lowering of the risk of vertebral fractures (new+worsening) in comparison to the placebo [3]: 78.6%
